From the supplement of paper PMC12819154, “High-throughput peptide-centric local stability assay extends protein–ligand identification to membrane proteins, tissues and bacteria” (Nature Structural & Molecular Biology, 2025)
The other results are listed elsewhere or left out. Most values lie at the level of the controls, where differences are scatter.

The chains behind the UniProt entries cited, without tags or fusion partners. Where a name states a change or a piece, a line headed by the entry shows the natural chain unless it says otherwise.
UniProt Q9CQF4: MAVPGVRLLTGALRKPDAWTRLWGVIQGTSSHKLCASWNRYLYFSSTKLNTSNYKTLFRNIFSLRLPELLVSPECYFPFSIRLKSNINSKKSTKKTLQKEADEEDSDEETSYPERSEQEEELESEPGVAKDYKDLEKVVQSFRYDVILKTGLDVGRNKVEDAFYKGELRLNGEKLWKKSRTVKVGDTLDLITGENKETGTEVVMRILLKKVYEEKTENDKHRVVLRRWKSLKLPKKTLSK
UniProt Q9CQL0: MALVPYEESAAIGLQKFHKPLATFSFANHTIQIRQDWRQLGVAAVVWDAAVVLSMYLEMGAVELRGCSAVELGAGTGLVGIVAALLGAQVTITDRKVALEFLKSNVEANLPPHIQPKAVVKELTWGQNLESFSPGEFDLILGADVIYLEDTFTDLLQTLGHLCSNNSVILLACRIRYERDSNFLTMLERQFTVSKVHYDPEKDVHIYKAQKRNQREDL
UniProt Q9CQ20, whole entry: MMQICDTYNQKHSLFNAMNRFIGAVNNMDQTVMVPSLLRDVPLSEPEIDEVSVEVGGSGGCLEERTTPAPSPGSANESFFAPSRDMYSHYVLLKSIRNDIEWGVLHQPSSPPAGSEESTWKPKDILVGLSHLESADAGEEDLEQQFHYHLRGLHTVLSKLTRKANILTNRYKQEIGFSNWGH
UniProt Q99PG2: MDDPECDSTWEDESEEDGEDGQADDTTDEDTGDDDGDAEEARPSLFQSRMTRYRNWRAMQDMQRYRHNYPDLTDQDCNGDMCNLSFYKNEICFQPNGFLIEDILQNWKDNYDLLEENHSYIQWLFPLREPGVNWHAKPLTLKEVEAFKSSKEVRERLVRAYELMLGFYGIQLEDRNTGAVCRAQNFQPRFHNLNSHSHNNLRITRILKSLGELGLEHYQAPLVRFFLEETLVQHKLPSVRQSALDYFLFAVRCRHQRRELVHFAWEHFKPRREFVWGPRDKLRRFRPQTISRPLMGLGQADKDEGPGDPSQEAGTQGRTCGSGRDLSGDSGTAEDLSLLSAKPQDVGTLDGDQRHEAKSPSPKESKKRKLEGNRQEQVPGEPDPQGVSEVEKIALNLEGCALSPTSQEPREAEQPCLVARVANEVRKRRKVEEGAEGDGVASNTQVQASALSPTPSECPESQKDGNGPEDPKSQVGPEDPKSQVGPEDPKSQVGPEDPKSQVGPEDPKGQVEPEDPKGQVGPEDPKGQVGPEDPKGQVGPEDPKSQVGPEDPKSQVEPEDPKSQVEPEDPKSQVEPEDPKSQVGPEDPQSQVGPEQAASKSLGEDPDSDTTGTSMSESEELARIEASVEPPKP
UniProt Q99P51: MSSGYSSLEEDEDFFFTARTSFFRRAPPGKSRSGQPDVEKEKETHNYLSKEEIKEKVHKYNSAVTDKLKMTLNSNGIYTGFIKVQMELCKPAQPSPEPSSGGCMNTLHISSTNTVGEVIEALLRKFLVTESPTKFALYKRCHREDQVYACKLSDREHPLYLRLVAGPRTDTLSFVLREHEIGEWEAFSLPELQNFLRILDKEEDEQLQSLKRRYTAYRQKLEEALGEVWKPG
UniProt Q9CQI7, whole entry: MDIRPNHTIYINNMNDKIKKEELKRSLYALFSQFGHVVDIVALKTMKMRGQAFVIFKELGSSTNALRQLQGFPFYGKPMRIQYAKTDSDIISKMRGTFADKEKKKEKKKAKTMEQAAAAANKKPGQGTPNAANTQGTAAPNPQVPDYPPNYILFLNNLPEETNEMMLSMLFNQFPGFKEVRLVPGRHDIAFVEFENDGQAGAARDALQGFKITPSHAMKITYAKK
UniProt Q9CQZ5, whole entry: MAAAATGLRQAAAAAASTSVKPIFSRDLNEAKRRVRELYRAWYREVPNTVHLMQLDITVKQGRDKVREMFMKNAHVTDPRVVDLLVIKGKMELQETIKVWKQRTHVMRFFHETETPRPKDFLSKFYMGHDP
UniProt Q99M31: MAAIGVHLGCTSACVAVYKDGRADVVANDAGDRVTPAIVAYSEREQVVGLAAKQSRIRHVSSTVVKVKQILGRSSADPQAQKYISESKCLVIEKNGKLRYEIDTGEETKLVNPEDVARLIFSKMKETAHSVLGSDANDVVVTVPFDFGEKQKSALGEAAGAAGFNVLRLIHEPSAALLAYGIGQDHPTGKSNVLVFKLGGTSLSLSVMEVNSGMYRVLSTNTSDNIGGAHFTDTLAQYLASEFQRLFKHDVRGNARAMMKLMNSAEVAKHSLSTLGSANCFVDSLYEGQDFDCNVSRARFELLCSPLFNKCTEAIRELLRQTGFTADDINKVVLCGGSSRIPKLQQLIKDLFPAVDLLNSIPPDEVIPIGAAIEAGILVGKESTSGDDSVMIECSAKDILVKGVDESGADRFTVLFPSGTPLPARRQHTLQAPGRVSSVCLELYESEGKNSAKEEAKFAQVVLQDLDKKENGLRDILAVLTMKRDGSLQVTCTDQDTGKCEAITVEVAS
UniProt Q9CPS7: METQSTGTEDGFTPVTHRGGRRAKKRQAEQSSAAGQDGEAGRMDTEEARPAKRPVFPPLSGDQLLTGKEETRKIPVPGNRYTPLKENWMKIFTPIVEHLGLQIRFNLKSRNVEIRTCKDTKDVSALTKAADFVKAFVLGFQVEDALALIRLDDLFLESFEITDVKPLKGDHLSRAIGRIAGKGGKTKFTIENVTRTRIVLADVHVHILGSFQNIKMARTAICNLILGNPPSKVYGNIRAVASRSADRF
UniProt Q9CQ39: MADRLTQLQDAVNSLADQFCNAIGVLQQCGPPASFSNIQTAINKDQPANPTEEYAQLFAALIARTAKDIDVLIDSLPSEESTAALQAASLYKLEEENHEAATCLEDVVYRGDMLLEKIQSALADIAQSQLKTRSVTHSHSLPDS
UniProt Q99LJ0: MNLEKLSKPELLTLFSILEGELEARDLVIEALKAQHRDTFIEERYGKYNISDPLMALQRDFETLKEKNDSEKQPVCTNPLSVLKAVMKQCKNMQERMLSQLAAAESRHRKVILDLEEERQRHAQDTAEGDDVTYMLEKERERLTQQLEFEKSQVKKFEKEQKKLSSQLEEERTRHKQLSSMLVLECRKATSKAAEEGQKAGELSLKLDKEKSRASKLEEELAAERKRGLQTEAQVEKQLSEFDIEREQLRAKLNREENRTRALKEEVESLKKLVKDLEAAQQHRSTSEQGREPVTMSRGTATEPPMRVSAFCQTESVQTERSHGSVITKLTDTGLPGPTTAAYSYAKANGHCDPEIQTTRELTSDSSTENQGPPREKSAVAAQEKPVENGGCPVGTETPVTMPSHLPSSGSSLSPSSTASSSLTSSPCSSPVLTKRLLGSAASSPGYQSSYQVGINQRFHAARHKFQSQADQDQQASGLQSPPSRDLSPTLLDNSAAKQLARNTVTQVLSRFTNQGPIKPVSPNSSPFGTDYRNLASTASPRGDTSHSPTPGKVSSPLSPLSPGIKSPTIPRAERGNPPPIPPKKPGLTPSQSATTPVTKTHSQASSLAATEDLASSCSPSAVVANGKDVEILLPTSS
UniProt Q9CQ88: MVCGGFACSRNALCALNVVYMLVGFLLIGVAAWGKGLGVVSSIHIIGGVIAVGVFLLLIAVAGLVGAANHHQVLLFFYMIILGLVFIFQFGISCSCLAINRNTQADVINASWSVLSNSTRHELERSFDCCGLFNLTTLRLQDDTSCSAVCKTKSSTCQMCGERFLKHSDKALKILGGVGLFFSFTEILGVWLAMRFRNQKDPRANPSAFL
UniProt Q9CPW9: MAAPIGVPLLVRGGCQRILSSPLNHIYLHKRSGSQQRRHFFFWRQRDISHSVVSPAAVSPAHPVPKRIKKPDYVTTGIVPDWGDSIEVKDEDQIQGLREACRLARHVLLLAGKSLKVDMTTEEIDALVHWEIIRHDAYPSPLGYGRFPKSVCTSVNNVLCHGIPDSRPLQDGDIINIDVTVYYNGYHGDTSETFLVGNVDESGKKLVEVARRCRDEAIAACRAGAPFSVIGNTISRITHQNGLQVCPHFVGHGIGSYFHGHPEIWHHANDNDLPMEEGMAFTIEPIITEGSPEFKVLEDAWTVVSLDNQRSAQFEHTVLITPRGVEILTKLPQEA
UniProt Q9CQ80: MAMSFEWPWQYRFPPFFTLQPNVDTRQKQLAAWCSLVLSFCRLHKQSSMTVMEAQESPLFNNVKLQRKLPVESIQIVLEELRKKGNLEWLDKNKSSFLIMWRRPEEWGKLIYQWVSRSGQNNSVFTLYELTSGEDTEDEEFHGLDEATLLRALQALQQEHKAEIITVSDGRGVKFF
UniProt Q9CQV7: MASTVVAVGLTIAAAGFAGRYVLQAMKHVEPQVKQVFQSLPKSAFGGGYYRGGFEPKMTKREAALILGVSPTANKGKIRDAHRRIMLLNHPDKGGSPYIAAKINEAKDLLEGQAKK
UniProt Q99NG0: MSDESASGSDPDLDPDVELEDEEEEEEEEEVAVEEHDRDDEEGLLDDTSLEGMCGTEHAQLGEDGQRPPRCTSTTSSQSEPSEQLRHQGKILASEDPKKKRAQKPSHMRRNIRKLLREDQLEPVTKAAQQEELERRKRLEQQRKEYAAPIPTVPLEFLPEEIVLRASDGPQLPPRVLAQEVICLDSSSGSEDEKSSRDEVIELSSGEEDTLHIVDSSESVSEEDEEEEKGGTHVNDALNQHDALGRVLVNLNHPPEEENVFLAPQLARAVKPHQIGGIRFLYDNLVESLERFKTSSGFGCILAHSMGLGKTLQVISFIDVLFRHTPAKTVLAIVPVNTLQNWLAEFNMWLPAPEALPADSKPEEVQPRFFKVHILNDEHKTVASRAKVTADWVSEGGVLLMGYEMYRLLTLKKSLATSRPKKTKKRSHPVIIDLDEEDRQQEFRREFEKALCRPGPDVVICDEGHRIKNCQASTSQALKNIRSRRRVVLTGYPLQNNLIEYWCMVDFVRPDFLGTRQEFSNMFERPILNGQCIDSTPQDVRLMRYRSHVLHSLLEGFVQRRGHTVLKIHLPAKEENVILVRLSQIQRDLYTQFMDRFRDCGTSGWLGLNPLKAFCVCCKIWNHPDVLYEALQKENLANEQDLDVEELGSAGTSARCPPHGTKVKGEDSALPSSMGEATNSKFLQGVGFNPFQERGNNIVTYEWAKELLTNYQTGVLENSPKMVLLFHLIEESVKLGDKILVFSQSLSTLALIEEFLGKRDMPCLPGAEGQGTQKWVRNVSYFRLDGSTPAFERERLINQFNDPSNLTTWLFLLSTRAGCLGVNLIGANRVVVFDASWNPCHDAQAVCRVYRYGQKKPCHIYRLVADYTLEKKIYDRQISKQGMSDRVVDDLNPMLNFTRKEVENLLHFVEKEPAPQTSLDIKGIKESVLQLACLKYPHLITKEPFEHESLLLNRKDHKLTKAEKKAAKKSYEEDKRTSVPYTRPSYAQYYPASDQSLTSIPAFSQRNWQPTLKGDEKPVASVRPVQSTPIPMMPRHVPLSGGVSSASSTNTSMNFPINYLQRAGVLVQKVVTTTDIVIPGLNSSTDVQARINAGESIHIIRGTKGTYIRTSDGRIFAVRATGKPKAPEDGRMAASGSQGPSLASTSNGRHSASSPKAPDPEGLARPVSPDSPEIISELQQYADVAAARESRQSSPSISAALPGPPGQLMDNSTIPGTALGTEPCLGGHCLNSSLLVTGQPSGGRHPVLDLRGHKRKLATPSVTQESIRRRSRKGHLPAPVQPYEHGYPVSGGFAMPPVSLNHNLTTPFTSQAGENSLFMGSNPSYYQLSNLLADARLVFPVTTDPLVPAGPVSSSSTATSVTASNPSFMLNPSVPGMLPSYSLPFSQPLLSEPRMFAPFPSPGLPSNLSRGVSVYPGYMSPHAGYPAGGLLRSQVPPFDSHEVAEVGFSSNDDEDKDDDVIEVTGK
UniProt Q99M07: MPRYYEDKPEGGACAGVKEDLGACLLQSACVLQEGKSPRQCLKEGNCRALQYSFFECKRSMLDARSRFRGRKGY
UniProt Q99MD6, whole entry: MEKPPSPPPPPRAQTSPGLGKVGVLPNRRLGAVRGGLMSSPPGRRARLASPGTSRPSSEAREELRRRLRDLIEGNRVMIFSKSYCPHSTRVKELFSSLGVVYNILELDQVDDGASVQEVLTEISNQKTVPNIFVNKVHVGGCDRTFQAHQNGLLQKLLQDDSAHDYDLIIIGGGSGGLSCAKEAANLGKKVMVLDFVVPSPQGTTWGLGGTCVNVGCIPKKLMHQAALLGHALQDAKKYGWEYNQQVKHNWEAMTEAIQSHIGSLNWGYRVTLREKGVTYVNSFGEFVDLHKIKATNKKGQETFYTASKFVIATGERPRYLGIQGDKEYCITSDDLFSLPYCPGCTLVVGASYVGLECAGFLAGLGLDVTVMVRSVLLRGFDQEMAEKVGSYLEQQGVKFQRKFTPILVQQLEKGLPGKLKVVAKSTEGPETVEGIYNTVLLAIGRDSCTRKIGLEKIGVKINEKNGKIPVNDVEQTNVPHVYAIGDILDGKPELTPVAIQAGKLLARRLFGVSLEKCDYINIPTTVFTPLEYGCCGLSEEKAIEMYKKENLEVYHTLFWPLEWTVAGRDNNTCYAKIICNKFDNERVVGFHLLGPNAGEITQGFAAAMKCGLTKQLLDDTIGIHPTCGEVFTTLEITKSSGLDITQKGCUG
UniProt Q9CQQ8: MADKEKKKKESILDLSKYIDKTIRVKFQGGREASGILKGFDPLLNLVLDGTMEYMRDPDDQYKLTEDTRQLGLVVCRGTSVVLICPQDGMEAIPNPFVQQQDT

These targets were tested with CN[C@@H]1C[C@H]2O[C@@](C)([C@@H]1OC)n1c3ccccc3c3c4c(c5c6ccccc6n2c5c31)C(=O)NC4 [staurosporine] (assay: log2 fold change of tryptic peptide abundance, ligand vs vehicle (limited proteolysis) (log2 ratio); higher = more trypsin-susceptible (destabilized)). Conditions: ligand concentration: 20 uM; sample: mouse liver crude lysate; replicate design: treated separately.
In the case of “UniProt Q9CQV6 (peptide sequence: FLVPDHVNMSELIK, peptide start residue: 52)”, the log2 fold change is reported as 0.0836. “UniProt Q9CQF4 (peptide sequence: NKVEDAFYK, peptide start residue: 157)” gave a log2 fold change of 0.195. For “UniProt Q9CQL0 (peptide sequence: VHYDPEKDVHIYK, peptide start residue: 196)”, the log2 fold change was 0.0671. With “UniProt Q9CQ20 (peptide sequence: KANILTNR, peptide start residue: 163)” the log2 fold change was -0.158. In the case of “UniProt Q99PG2 (peptide sequence: ELVHFAWEHFKPR, peptide start residue: 259)”, the log2 fold change is reported as 0.227. Work on “UniProt Q99LQ1 (peptide sequence: LQNIEAHLR, peptide start residue: 250)” yielded a log2 fold change of 0.794. “UniProt Q99P51 (peptide sequence: YNSAVTDKLK, peptide start residue: 60)” was tested, and the log2 fold change was 0.405. “UniProt Q9CPW4 (peptide sequence: DRAGSIVLK, peptide start residue: 73)” was tested, and the log2 fold change was 0.325. “UniProt Q9CQI7 (peptide sequence: TMEQAAAAANK, peptide start residue: 112)” gave a log2 fold change of 0.129. Target “UniProt Q9CQZ5 (peptide sequence: VVDLLVIK, peptide start residue: 81)” has a log2 fold change of -0.194. “UniProt Q99NB9 (peptide sequence: VRDVYWK, peptide start residue: 1261)” gave a log2 fold change of 0.334. In the case of “UniProt Q9CR30 (peptide sequence: PSPPSVYHER, peptide start residue: 9)”, the log2 fold change is reported as -0.245. For “UniProt Q99M31 (peptide sequence: LIHEPSAALLAYGIGQDHPTGK, peptide start residue: 169)”, the log2 fold change was 0.126. “UniProt Q9CPS7 (peptide sequence: FTIENVTR, peptide start residue: 188)” was tested, and the log2 fold change was 0.0855. With “UniProt Q9CQ39 (peptide sequence: SVTHSHSLPDS, peptide start residue: 134)” the log2 fold change was 0.000266. For “UniProt Q99N16 (peptide sequence: RKPELILR, peptide start residue: 500)”, the log2 fold change was 0.409. With “UniProt Q99LR1 (peptide sequence: KRTEPVTLEHER, peptide start residue: 3)” the log2 fold change was 0.081. “UniProt Q99ME9 (peptide sequence: LPTIDPNTR, peptide start residue: 161)” gave a log2 fold change of 0.446. Work on “UniProt Q99NA2 (peptide sequence: KRPGEATAASTEIK, peptide start residue: 213)” yielded a log2 fold change of 0.499. With “UniProt Q99LJ0 (peptide sequence: STSEQGREPVTMSR, peptide start residue: 285)” the log2 fold change was -0.579. Target “UniProt Q9CQ88 (peptide sequence: LQDDTSCSAVCKTK, peptide start residue: 140)” has a log2 fold change of 0.127. “UniProt Q9CPW9 (peptide sequence: DISHSVVSPAAVSPAHPVPK, peptide start residue: 47)” gave a log2 fold change of 0.0911. “UniProt Q99MR3 (peptide sequence: FWRPQLLLLVGNPR, peptide start residue: 529)” showed a log2 fold change of 0.76. “UniProt Q9CPT5 (peptide sequence: QKFGYNVNRK, peptide start residue: 11)” was tested, and the log2 fold change was 0.554. Target “UniProt Q9CQ80 (peptide sequence: KGNLEWLDK, peptide start residue: 84)” has a log2 fold change of 0.133. With “UniProt Q9CQV7 (peptide sequence: QVFQSLPK, peptide start residue: 35)” the log2 fold change was 0.0759. “UniProt Q99LS1 (peptide sequence: LVSYLPGFCSLVKR, peptide start residue: 11)” was tested, and the log2 fold change was 0.228. For “UniProt Q99NG0 (peptide sequence: SHVLHSLLEGFVQR, peptide start residue: 547)”, the log2 fold change was -0.488. In the case of “UniProt Q99M07 (peptide sequence: YYEDKPEGGACAGVK, peptide start residue: 4)”, the log2 fold change is reported as 0.12. “UniProt Q99MD6 (peptide sequence: TFQAHQNGLLQK, peptide start residue: 145)” showed a log2 fold change of 0.266. In the case of “UniProt Q9CQQ8 (peptide sequence: ESILDLSK, peptide start residue: 10)”, the log2 fold change is reported as -0.0469.
